At least one peptide structure holds a part that was inferred or is arguable (an end, a ring closure or a residue). Where no end group is shown, it is not given here.
System: Chinese hamster ovary cells (CHO)
Test: DNA synthesis of CHO cells (3H-thymidine incorporation)
Assay type: cell-based

Q: Which “dose for a 25% reduction of DNA synthesis” value (CHO cells, procedure of Example 19) does the source give for “SRVKQVGSSPQ [peptide obtained in Example 25, ser-arg-val-lys-gln-val-gly-ser-ser-pro-gln]” here?
A: Its value is 40 picomole of the peptide per plate.

Q: What about the “antimetabolic activity” value (fractions of second HPLC step, FIG. 9) of the same sequence?
A: The value was “show antimetabolic activity”.
